No constants are given. Whether binding was seen depends on the method and setting. Binding seen in cells or lysates may run through a third protein. These calls come from enrichment with a bait or labelling near it, and not all partners need be listed.
Target: wild-type KIBRA (WWC1), BirA*-FLAG BioID bait in MDA-MB-231 cells (UniProt Q8IX03)
Assay: proximity labelling; BioID: KIBRA constructs in pSTV2-BirA*-FLAG expressed in MDA-MB-231 cells, biotinylated proteins by mass spectrometry, biological duplicates, scored with SAINTexpress against negative controls (vector alone)

The chains behind the UniProt entries cited, without tags or fusion partners.
UniProt Q8IX03: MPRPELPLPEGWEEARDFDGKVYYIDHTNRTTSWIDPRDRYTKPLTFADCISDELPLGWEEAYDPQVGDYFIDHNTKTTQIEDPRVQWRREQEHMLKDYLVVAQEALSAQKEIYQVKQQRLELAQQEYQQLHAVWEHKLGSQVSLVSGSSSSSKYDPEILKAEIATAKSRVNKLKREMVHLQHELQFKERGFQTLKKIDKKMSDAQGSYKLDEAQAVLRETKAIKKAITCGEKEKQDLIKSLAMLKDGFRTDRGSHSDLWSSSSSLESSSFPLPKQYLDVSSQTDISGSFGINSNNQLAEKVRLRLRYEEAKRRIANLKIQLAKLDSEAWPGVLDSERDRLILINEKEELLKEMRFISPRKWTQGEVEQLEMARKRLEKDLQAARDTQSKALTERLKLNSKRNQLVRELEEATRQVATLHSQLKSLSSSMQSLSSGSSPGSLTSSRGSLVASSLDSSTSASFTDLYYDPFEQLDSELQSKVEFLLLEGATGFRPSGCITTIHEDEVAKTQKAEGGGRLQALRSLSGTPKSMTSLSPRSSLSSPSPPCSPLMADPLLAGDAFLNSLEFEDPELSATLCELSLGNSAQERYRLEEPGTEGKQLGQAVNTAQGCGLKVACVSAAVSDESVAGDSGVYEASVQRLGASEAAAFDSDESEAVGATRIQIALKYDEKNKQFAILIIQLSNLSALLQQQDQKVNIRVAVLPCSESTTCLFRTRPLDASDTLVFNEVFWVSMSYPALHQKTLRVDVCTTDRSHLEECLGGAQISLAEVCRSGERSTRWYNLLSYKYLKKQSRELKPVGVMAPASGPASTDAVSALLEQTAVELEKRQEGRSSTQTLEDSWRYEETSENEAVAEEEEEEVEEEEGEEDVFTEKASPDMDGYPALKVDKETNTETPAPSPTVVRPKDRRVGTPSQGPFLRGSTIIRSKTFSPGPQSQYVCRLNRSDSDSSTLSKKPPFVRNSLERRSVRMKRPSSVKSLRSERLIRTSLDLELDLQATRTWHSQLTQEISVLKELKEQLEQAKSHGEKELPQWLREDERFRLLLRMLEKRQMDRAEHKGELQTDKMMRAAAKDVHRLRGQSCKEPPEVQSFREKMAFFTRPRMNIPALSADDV

- binding: binds
B1: PTPN14 (protein tyrosine phosphatase non-receptor 14) (enzyme, UniProt Q15678 1-1187)
chain: MPFGLKLRRTRRYNVLSKNCFVTRIRLLDSNVIECTLSVESTGQECLEAVAQRLELRETHYFGLWFLSKSQQARWVELEKPLKKHLDKFANEPLLFFGVMFYVPNVSWLQQEATRYQYYLQVKKDVLEGRLRCTLDQVIRLAGLAVQADFGDYNQFDSQDFLREYVLFPMDLALEEAVLEELTQKVAQEHKAHSGILPAEAELMYINEVERLDGFGQEIFPVKDNHGNCVHLGIFFMGIFVRNRIGRQAVIYRWNDMGNITHNKSTILVELINKEETALFHTDDIENAKYISRLFATRHKFYKQNKICTEQSNSPPPIRRQPTWSRSSLPRQQPYILPPVHVQCGEHYSETHTSQDSIFHGNEEALYCNSHNSLDLNYLNGTVTNGSVCSVHSVNSLNCSQSFIQASPVSSNLSIPGSDIMRADYIPSHRHSAIIVPSYRPTPDYETVMRQMKRGILHTDSQSQSLRNLNIINTHAYNQPEDLVYSQPEMRERHPYTVPYGPQGVYSNKLVSPSDQRNPKNNVVPSKPGASAISHTVSTPELANMQLQGSHNYSTAHMLKNYLFRPPPPYPRPRPATSTPDLASHRHKYVSGSSPDLVTRKVQLSVKTFQEDSSPVVHQSLQEVSEPLTATKHHGTVNKRHSLEVMNSMVRGMEAMTLKSLHLPMARRNTLREQGPPEEGSGSHEVPQLPQYHHKKTFSDATMLIHSSESEEEEEEAPESVPQIPMLREKMEYSAQLQAALARIPNKPPPEYPGPRKSVSNGALRQDQASLPPAMARARVLRHGPAKAISMSRTDPPAVNGASLGPSISEPDLTSVKERVKKEPVKERPVSEMFSLEDSIIEREMMIRNLEKQKMAGLEAQKRPLMLAALNGLSVARVSGREENRVDATRVPMDERFRTLKKKLEEGMVFTEYEQIPKKKANGIFSTAALPENAERSRIREVVPYEENRVELIPTKENNTGYINASHIKVVVGGAEWHYIATQGPLPHTCHDFWQMVWEQGVNVIAMVTAEEEGGRTKSHRYWPKLGSKHSSATYGKFKVTTKFRTDSVCYATTGLKVKHLLSGQERTVWHLQYTDWPDHGCPEDVQGFLSYLEEIQSVRRHTNSMLEGTKNRHPPIVVHCSAGVGRTGVLILSELMIYCLEHNEKVEVPMMLRLLREQRMFMIQTIAQYKFVYQVLIQFLQNSRLI
